# Measured values from the supplement of paper PMC8728848.
# Some of the results follow.
# Columns and labels:
# Experiment in all cases: glycan array binding signal (z-score within array); higher = stronger binding
# Settings in all cases: glycan notation: IUPAC condensed, linker removed
# [1] = molecular target: Neu5Ac(a2-6)Gal(b1-4)GlcNAc(b1-3)Gal(b1-4)GlcNAc(b1-3)Gal(b1-4)GlcNAc(b1-2)Man(a1-3)[Neu5Ac(a2-6)Gal(b1-4)GlcNAc(b1-3)Gal(b1-4)GlcNAc(b1-3)Gal(b1-4)GlcNAc(b1-2)Man(a1-6)]GalNAc
# Procedure, shortened: (§1)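 Negative Z-scores can be read as non-binding. The Z-score is calculated within each array and then averaged across arrays of one protein sequence at different concentrations or buffers and across linkers. Arrays, 3228 in all, were curated from the Consortium for Functional Glycomics database and kept only where the protein sequence was available.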
# [2] = molecular target: Neu5Ac(a2-6)Gal(b1-4)GlcNAc(b1-3)Gal(b1-4)GlcNAc(b1-3)GalNAc
# Procedure, shortened: as §1
# [3] = molecular target: Neu5Ac(a2-6)Gal(b1-4)GlcNAc(b1-3)Gal(b1-4)GlcNAc(b1-3)[Neu5Ac(a2-6)Gal(b1-4)GlcNAc(b1-3)Gal(b1-4)GlcNAc(b1-6)]GalNAc
# Procedure, shortened: as §1
# [4] = molecular target: Neu5Ac(a2-6)Gal(b1-4)GlcNAc(b1-3)Gal(b1-4)GlcNAc(b1-6)[Gal(b1-3)]GalNAc
# Procedure, shortened: as §1
# [5] = molecular target: Neu5Ac(a2-6)Gal(b1-4)GlcNAc(b1-3)Gal(b1-4)[Fuc(a1-3)]GlcNAc(b1-3)Gal(b1-4)[Fuc(a1-3)]GlcNAc
# Procedure, shortened: as §1
# [6] = molecular target: Neu5Ac(a2-6)Gal(b1-4)GlcNAc(b1-3)GalNAc
# Procedure, shortened: as §1
# [7] = molecular target: Neu5Ac(a2-6)Gal(b1-4)GlcNAc(b1-3)[Neu5Ac(a2-6)Gal(b1-4)GlcNAc(b1-6)]GalNAc
# Procedure, shortened: as §1
# [8] = molecular target: Neu5Ac(a2-6)Gal(b1-4)GlcNAc(b1-6)GalNAc
# Procedure, shortened: as §1
# [9] = molecular target: Neu5Ac(a2-6)Gal(b1-4)GlcNAc(b1-6)[Gal(b1-3)GlcNAc(b1-3)]Gal(b1-4)Glc
# Procedure, shortened: as §1
# [10] = molecular target: Neu5Ac(a2-6)Gal(b1-4)GlcNAc(b1-6)[Gal(b1-3)]GalNAc
# Procedure, shortened: as §1
# [11] = molecular target: Neu5Ac(a2-6)Gal(b1-4)GlcNAc6S
# Procedure, shortened: as §1
# [12] = molecular target: Neu5Ac(a2-6)GalNAc
# Procedure, shortened: as §1
# [13] = molecular target: Neu5Ac(a2-6)GalNAc(b1-4)GlcNAc
# Procedure, shortened: as §1
# [14] = molecular target: Neu5Ac(a2-6)GalNAc(b1-4)GlcNAc6S
# Procedure, shortened: as §1
# [15] = molecular target: Neu5Ac(a2-6)GlcNAc(b1-4)GlcNAc
# Procedure, shortened: as §1
# [16] = molecular target: Neu5Ac(a2-6)GlcNAc(b1-4)GlcNAc(b1-4)GlcNAc
# Procedure, shortened: as §1
# [17] = molecular target: Neu5Ac(a2-8)Neu5Ac
# Procedure, shortened: as §1
# [18] = molecular target: Neu5Ac(a2-8)Neu5Ac(a2-3)Gal(b1-3)GalNAc(b1-4)[Neu5Ac(a2-3)]Gal(b1-4)Glc
# Procedure, shortened: as §1
# [19] = molecular target: Neu5Ac(a2-8)Neu5Ac(a2-3)Gal(b1-3)GalNAc(b1-4)[Neu5Ac(a2-8)Neu5Ac(a2-3)]Gal(b1-4)Glc
# Procedure, shortened: as §1
# [20] = molecular target: Neu5Ac(a2-8)Neu5Ac(a2-3)Gal(b1-4)Glc
# Procedure, shortened: as §1
# [21] = molecular target: Neu5Ac(a2-8)Neu5Ac(a2-3)Gal(b1-4)GlcNAc
# Procedure, shortened: as §1
# [22] = molecular target: Neu5Ac(a2-8)Neu5Ac(a2-3)[Gal(b1-3)GalNAc(b1-4)]Gal(b1-4)Glc
# Procedure, shortened: as §1
# [23] = molecular target: Neu5Ac(a2-8)Neu5Ac(a2-3)[GalNAc(b1-4)]Gal(b1-4)Glc
# Procedure, shortened: as §1
# [24] = molecular target: Neu5Ac(a2-8)Neu5Ac(a2-8)Neu5Ac
# Procedure, shortened: as §1
# [25] = molecular target: Neu5Ac(a2-8)Neu5Ac(a2-8)Neu5Ac(a2-3)Gal(b1-4)Glc
# Procedure, shortened: as §1
# [26] = molecular target: Neu5Ac(a2-8)Neu5Ac(a2-8)Neu5Ac(a2-3)[Gal(b1-3)GalNAc(b1-4)]Gal(b1-4)Glc
# Procedure, shortened: as §1
# [27] = molecular target: Neu5Ac(a2-8)Neu5Ac(a2-8)Neu5Ac(a2-3)[GalNAc(b1-4)]Gal(b1-4)Glc
# Procedure, shortened: as §1
# [28] = molecular target: Neu5Ac(a2-8)Neu5Ac(a2-8)Neu5Ac(a2-8)Neu5Ac(a2-3)[GalNAc(b1-4)]Gal(b1-4)Glc
# Procedure, shortened: as §1
# [29] = molecular target: Neu5Ac(a2-8)Neu5Gc(a2-3)Gal(b1-4)GlcNAc
# Procedure, shortened: as §1
# [30] = molecular target: Neu5Ac(b2-6)Gal(b1-4)GlcNAc
# Procedure, shortened: as §1
# [31] = molecular target: Neu5Ac(b2-6)GalNAc
# Procedure, shortened: as §1
# [32] = molecular target: Neu5Ac9Ac(a2-3)Gal(b1-3)GlcNAc
# Procedure, shortened: as §1
# [33] = molecular target: Neu5Ac9Ac(a2-3)Gal(b1-4)GlcNAc
# Procedure, shortened: as §1
# [34] = molecular target: Neu5Ac9Ac(a2-6)Gal(b1-4)GlcNAc
# Procedure, shortened: as §1
# [35] = molecular target: Neu5Gc(a2-3)Gal(b1-3)GlcNAc
# Procedure, shortened: as §1
# [36] = molecular target: Neu5Gc(a2-3)Gal(b1-3)[Fuc(a1-4)]GlcNAc
# Procedure, shortened: as §1
# [37] = molecular target: Neu5Gc(a2-3)Gal(b1-4)Glc
# Procedure, shortened: as §1
# [38] = molecular target: Neu5Gc(a2-3)Gal(b1-4)GlcNAc
# Procedure, shortened: as §1
# [39] = molecular target: Neu5Gc(a2-3)Gal(b1-4)GlcNAc(b1-3)Gal(b1-4)GlcNAc(b1-2)Man(a1-3)[Neu5Gc(a2-3)Gal(b1-4)GlcNAc(b1-3)Gal(b1-4)GlcNAc(b1-2)Man(a1-6)]Man(b1-4)GlcNAc(b1-4)GlcNAc
# Procedure, shortened: as §1
# [40] = molecular target: Neu5Gc(a2-3)Gal(b1-4)[Fuc(a1-3)]GlcNAc
# Procedure, shortened: as §1
# [41] = molecular target: Neu5Gc(a2-6)Gal(b1-4)GlcNAc
# Procedure, shortened: as §1
# [42] = molecular target: Neu5Gc(a2-6)GalNAc
# Procedure, shortened: as §1
# [43] = molecular target: Neu5Gc(a2-8)Neu5Ac(a2-3)Gal(b1-4)GlcNAc
# Procedure, shortened: as §1
# [44] = molecular target: Neu5Gc(a2-8)Neu5Gc(a2-3)Gal(b1-4)GlcNAc
# Procedure, shortened: as §1
# [45] = molecular target: Neu5Gc(a2-8)Neu5Gc(a2-3)Gal(b1-4)GlcNAc(b1-3)Gal(b1-4)GlcNAc
# Procedure, shortened: as §1
binder,measurement,setting,value
B936 (Bifidobacterium sp) (protein) MKNWKKAIALVASAAALVSVAACGPSNAGGSSDSGKKTVGFVAVGPEGGFRTANEKDIQKAFEDAGFDLTYSPTQNNDQQKQIQAFNKFVNDEVDAIILSSTEDSGWDDSLKKAAEAEIPVFTVDRNVDVKDAEAKKAIVAHIGPSNVWCGEQAAEFVNKNFPDGANGFILEGPAGLSVVKDRGTGWGNKVASNVKVLESQSANWSTDEAKTVTAGLLDKYKSDNPQFIFAQNDEMGLGAAQAVDAAGLKGKVKIITIDGTKNALQALVDGDLSYVIEYNPIFGKETAQAVKDYLDGKTVEKDIEIESKTFDAASAKEALDNNTRAY,glycan array binding signal (z-score),[1],0.845
same,glycan array binding signal (z-score),[2],-0.228
same,glycan array binding signal (z-score),[3],0.796
same,glycan array binding signal (z-score),[4],0.558
same,glycan array binding signal (z-score),[5],0.188
same,glycan array binding signal (z-score),[6],2.06
same,glycan array binding signal (z-score),[7],-0.353
same,glycan array binding signal (z-score),[8],-0.332
same,glycan array binding signal (z-score),[9],-0.335
same,glycan array binding signal (z-score),[10],0.201
same,glycan array binding signal (z-score),[11],-0.788
same,glycan array binding signal (z-score),[12],0.167
same,glycan array binding signal (z-score),[13],-1.38
same,glycan array binding signal (z-score),[14],-0.333
same,glycan array binding signal (z-score),[15],-0.323
same,glycan array binding signal (z-score),[16],-0.943
same,glycan array binding signal (z-score),[17],-0.555
same,glycan array binding signal (z-score),[18],0.296
same,glycan array binding signal (z-score),[19],0.31
same,glycan array binding signal (z-score),[20],-0.062
same,glycan array binding signal (z-score),[21],-0.433
same,glycan array binding signal (z-score),[22],0.036
same,glycan array binding signal (z-score),[23],-0.488
same,glycan array binding signal (z-score),[24],-0.464
same,glycan array binding signal (z-score),[25],-0.485
same,glycan array binding signal (z-score),[26],-0.252
same,glycan array binding signal (z-score),[27],-0.352
same,glycan array binding signal (z-score),[28],0.051
same,glycan array binding signal (z-score),[29],-0.646
same,glycan array binding signal (z-score),[30],0.124
same,glycan array binding signal (z-score),[31],-0.526
same,glycan array binding signal (z-score),[32],-0.521
same,glycan array binding signal (z-score),[33],-0.596
same,glycan array binding signal (z-score),[34],-0.104
same,glycan array binding signal (z-score),[35],-0.499
same,glycan array binding signal (z-score),[36],0.081
same,glycan array binding signal (z-score),[37],0.141
same,glycan array binding signal (z-score),[38],-0.84
same,glycan array binding signal (z-score),[39],0.718
same,glycan array binding signal (z-score),[40],-0.593
same,glycan array binding signal (z-score),[41],-0.019
same,glycan array binding signal (z-score),[42],-0.853
same,glycan array binding signal (z-score),[43],-0.688
same,glycan array binding signal (z-score),[44],-0.498
same,glycan array binding signal (z-score),[45],-0.007

# Two entries picked at random from those above, as already listed:
binder,measurement,setting,value
B936 (Bifidobacterium sp) (protein) MKNWKKAIALVASAAALVSVAACGPSNAGGSSDSGKKTVGFVAVGPEGGFRTANEKDIQKAFEDAGFDLTYSPTQNNDQQKQIQAFNKFVNDEVDAIILSSTEDSGWDDSLKKAAEAEIPVFTVDRNVDVKDAEAKKAIVAHIGPSNVWCGEQAAEFVNKNFPDGANGFILEGPAGLSVVKDRGTGWGNKVASNVKVLESQSANWSTDEAKTVTAGLLDKYKSDNPQFIFAQNDEMGLGAAQAVDAAGLKGKVKIITIDGTKNALQALVDGDLSYVIEYNPIFGKETAQAVKDYLDGKTVEKDIEIESKTFDAASAKEALDNNTRAY,glycan array binding signal (z-score),[40],-0.593
same,glycan array binding signal (z-score),[16],-0.943
